This assay addresses T1, Yeast mitochondrial escape 1-like 1 (YME1L) (human (endogenous in HK2)) (UniProt Q96TA2).
T1 sequence: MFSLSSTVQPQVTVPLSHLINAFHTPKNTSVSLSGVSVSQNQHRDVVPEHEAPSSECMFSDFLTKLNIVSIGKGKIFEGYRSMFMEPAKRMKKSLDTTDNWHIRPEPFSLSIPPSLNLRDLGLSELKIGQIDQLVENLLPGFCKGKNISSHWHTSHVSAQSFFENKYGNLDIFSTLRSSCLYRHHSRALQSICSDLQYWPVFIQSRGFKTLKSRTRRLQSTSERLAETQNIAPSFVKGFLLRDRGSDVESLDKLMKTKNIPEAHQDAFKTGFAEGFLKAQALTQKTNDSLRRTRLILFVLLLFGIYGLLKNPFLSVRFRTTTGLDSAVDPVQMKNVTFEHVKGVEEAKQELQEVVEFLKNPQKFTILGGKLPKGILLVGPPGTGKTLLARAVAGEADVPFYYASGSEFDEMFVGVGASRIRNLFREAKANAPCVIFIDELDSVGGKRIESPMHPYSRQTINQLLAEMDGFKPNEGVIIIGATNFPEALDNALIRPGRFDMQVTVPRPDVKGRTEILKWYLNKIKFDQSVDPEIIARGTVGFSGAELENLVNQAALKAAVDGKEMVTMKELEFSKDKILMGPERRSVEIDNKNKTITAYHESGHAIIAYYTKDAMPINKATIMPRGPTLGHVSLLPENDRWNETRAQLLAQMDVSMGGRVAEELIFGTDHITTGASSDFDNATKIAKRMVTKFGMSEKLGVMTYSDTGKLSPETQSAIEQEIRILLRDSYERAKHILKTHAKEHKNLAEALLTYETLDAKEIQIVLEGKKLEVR
Kind of assay: co-IP; endogenous proteins in HK2 cell lysates; antibody at 4 °C overnight, Protein A/G magnetic beads 2 h, western blotting; reciprocal; also after HG for 48 h (IP with anti-YME1L).

Amino acid sequences for entries named in this document (tags omitted).
UniProt Q9BXK5: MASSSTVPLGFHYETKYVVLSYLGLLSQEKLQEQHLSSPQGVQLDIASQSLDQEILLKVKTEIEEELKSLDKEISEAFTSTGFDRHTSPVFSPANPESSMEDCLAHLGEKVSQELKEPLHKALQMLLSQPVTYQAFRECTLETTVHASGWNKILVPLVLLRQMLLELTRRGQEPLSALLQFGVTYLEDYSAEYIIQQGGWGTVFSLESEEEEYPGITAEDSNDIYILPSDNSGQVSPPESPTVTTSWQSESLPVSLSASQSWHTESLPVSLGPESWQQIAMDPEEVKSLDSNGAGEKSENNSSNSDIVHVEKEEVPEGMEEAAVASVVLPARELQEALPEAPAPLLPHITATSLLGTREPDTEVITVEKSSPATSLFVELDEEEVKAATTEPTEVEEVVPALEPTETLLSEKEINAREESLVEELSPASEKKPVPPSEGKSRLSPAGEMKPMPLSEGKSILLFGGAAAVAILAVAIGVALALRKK

For one substance, binding results are on record in publication PMC10946153.

These are yes or no findings as the source states them, for the method shown. Binding seen in cells or lysates may run through a third protein. Some results given as binding are weak or reduced against the parent protein; the word gives no strength.

“BCL2-like 13 (BCL2L13) (from UniProt Q9BXK5 1-485)”: the binding result is “binds”.
